Data on five molecules can be found in paper PMC10550967, “Structure of the ceramide-bound SPOTS complex” (Nature Communications, 2023).

Amino acid sequences for entries named in this document (tags omitted). A change or cut given only in a name is not applied to a line headed by its entry. Chains listed by the source or under a name are the forms on record and can include a tag or linker.
UniProt P53224: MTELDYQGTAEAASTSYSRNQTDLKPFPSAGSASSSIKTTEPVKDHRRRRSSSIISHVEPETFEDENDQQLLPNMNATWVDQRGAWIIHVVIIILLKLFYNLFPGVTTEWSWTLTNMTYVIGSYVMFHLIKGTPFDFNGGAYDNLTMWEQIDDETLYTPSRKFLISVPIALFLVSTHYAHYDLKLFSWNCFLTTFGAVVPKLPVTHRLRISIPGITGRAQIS
Orm1 with S51, S52 and S53 mutated to alanine (ORM1^AAA) (P53224, form named): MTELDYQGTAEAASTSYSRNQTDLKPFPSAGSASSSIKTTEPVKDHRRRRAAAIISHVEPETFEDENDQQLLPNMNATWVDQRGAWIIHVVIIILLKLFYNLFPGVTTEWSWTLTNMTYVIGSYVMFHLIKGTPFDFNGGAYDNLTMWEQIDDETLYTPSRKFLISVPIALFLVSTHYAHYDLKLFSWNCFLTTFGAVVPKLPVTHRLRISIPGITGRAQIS

These are yes or no findings as the source states them, for the method shown. For part of these data: Binding seen in cells or lysates may run through a third protein. Some binding calls cover weakened binding; strength is not graded here. For part of these data: Sequences can lack the tags named with a protein.

Assay [1] concerns the target T1, Lcb1, internally 3xFLAG-tagged after P9 (S. cerevisiae) (UniProt P25045).
T1 sequence: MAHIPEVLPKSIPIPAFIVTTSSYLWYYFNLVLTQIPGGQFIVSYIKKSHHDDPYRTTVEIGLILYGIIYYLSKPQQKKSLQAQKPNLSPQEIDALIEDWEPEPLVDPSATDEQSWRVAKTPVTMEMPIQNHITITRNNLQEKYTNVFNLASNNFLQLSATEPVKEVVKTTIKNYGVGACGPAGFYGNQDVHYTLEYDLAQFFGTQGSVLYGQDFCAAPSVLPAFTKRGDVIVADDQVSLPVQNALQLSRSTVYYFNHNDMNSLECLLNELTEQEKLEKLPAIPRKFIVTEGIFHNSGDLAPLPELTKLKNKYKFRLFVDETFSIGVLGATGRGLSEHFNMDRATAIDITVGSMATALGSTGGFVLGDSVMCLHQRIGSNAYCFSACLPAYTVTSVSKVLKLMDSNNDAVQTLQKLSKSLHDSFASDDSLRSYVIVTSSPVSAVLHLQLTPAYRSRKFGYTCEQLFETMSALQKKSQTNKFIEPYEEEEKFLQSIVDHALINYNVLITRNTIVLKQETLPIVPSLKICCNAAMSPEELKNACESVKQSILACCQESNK
The assay can be described thus: cryo-EM structure; single-particle cryo-EM of the FLAG-purified complex in GDN, 10 mg/ml; one dataset gave a C2 symmetric SPOT dimer, a SPOT monomer and a SPOTS monomer with Sac1; both purified.

The next assay addresses T2, Lcb2 (S. cerevisiae) (UniProt P40970).
T2 sequence (chain, PLP forms an internal aldimine with K366): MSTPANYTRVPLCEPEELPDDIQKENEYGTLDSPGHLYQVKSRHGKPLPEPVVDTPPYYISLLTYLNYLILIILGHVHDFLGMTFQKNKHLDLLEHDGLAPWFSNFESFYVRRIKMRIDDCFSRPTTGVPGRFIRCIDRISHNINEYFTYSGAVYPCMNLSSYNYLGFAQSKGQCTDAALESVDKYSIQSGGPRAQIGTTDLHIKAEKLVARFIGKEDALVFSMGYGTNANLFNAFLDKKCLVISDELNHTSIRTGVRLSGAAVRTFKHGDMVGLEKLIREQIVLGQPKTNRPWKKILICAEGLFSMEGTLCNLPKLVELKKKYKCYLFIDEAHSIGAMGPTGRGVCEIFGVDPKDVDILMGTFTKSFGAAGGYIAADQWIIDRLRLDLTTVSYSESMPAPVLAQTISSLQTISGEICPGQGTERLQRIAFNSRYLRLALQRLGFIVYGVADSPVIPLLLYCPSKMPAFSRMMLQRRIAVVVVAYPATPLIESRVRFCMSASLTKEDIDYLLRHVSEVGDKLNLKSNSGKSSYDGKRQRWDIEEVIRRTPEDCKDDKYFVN
The description is as above.

In assay [2] the target is Lcb1, one FLAG-tagged and one ALFA-tagged copy in diploid cells (S. cerevisiae) (UniProt P25045). The assay can be described thus: co-IP; pulldown from diploid yeast with one FLAG-tagged and one ALFA-tagged Lcb1, ALFA beads or Fab-Trap beads, western blot with anti-FLAG and anti-ALFA. For orientation: In western blotting, separated proteins are transferred to a membrane and probed.

In the case of “Orm1 with S51, S52 and S53 mutated to alanine (ORM1^AAA) (from UniProt P53224 1-222)”, the binding entry (in assay [1]; with Lcb2 (S. cerevisiae)) was “binds” each time.

B1: Tsc3 (protein, UniProt Q3E790 1-80)
chain: MTQHKSSMVYIPTTKEAKRRNGKSEGILNTIEEVVEKLYWTYYIHLPFYLMASFDSFFLHVFFLTIFSLSFFGILKYCFL
Regarding B1, the binding result with Lcb2 (S. cerevisiae) was “binds”.

B2: Lcb2 (enzyme, S. cerevisiae)
chain: MSTPANYTRVPLCEPEELPDDIQKENEYGTLDSPGHLYQVKSRHGKPLPEPVVDTPPYYISLLTYLNYLILIILGHVHDFLGMTFQKNKHLDLLEHDGLAPWFSNFESFYVRRIKMRIDDCFSRPTTGVPGRFIRCIDRISHNINEYFTYSGAVYPCMNLSSYNYLGFAQSKGQCTDAALESVDKYSIQSGGPRAQIGTTDLHIKAEKLVARFIGKEDALVFSMGYGTNANLFNAFLDKKCLVISDELNHTSIRTGVRLSGAAVRTFKHGDMVGLEKLIREQIVLGQPKTNRPWKKILICAEGLFSMEGTLCNLPKLVELKKKYKCYLFIDEAHSIGAMGPTGRGVCEIFGVDPKDVDILMGTFTKSFGAAGGYIAADQWIIDRLRLDLTTVSYSESMPAPVLAQTISSLQTISGEICPGQGTERLQRIAFNSRYLRLALQRLGFIVYGVADSPVIPLLLYCPSKMPAFSRMMLQRRIAVVVVAYPATPLIESRVRFCMSASLTKEDIDYLLRHVSEVGDKLNLKSNSGKSSYDGKRQRWDIEEVIRRTPEDCKDDKYFVN
modifications: PLP forms an internal aldimine with K366
notes: Lcb2, catalytic subunit of serine palmitoyltransferase, S. cerevisiae; also called SPT subunit; source: S. cerevisiae, co-expressed with the other SPOTS subunits under the GAL1 promoter
For B2, in assay [1], the binding result is “binds”.

B3: Lcb1, one FLAG-tagged and one ALFA-tagged copy in diploid cells (enzyme, UniProt P25045 1-558)
chain: MAHIPEVLPKSIPIPAFIVTTSSYLWYYFNLVLTQIPGGQFIVSYIKKSHHDDPYRTTVEIGLILYGIIYYLSKPQQKKSLQAQKPNLSPQEIDALIEDWEPEPLVDPSATDEQSWRVAKTPVTMEMPIQNHITITRNNLQEKYTNVFNLASNNFLQLSATEPVKEVVKTTIKNYGVGACGPAGFYGNQDVHYTLEYDLAQFFGTQGSVLYGQDFCAAPSVLPAFTKRGDVIVADDQVSLPVQNALQLSRSTVYYFNHNDMNSLECLLNELTEQEKLEKLPAIPRKFIVTEGIFHNSGDLAPLPELTKLKNKYKFRLFVDETFSIGVLGATGRGLSEHFNMDRATAIDITVGSMATALGSTGGFVLGDSVMCLHQRIGSNAYCFSACLPAYTVTSVSKVLKLMDSNNDAVQTLQKLSKSLHDSFASDDSLRSYVIVTSSPVSAVLHLQLTPAYRSRKFGYTCEQLFETMSALQKKSQTNKFIEPYEEEEKFLQSIVDHALINYNVLITRNTIVLKQETLPIVPSLKICCNAAMSPEELKNACESVKQSILACCQESNK
In the case of B3, the binding entry in assay [2] was “binds weakly”.

B4: Sac1, PI4P phosphatase (enzyme, UniProt P32368 1-623)
chain: MTGPIVYVQNADGIFFKLAEGKGTNDAVIHLANQDQGVRVLGAEEFPVQGEVVKIASLMGFIKLKLNRYAIIANTVEETGRFNGHVFYRVLQHSIVSTKFNSRIDSEEAEYIKLLELHLKNSTFYFSYTYDLTNSLQRNEKVGPAASWKTADERFFWNHYLTEDLRNFAHQDPRIDSFIQPVIYGYAKTVDAVLNATPIVLGLITRRSIFRAGTRYFRRGVDKDGNVGNFNETEQILLAENPESEKIHVFSFLQTRGSVPIYWAEINNLKYKPNLVLGENSLDATKKHFDQQKELYGDNYLVNLVNQKGHELPVKEGYESVVHALNDPKIHYVYFDFHHECRKMQWHRVKLLIDHLEKLGLSNEDFFHKVIDSNGNTVEIVNEQHSVVRTNCMDCLDRTNVVQSVLAQWVLQKEFESADVVATGSTWEDNAPLLTSYQNLWADNADAVSVAYSGTGALKTDFTRTGKRTRLGAFNDFLNSASRYYQNNWTDGPRQDSYDLFLGGFRPHTASIKSPFPDRRPVYIQLIPMIICAALTVLGATIFFPKDRFTSSKNLLYFAGASIVLALSTKFMFKNGIQFVNWPKLVDVGFLVVHQTHDKEQQFKGLKYAQSPKFSKPDPLKRD
Consider B4, for which, in the assay with Lcb2 (S. cerevisiae), the binding entry was “binds”.
